Measurements reported in PubChem BioAssay AID1259308 (NCATS, 2017)

Test: 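Candidate targets for better recombinant protein yield in mammalian cells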 (primary screen)
Cell system: human HEK293 embryonic kidney cells stably expressing firefly luciferase (HEK-CMV-Luc2-Hygro)
Knock-down reagent: single siRNA against human genes, 0.8 pmol siRNA per well
Timing: 72 h
Measured: 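Reporter luminescence and viable-cell signal on separate replicate plates, given as percent of non-targeting control and median/MAD z-scores, plus per-cell luciferase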
Scale: total luciferase, z-score and total luciferase, % of control: higher = more reporter protein produced
Hit rule: 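An siRNA counts as active if its total luciferase robust z-score exceeds 3; genes with two or more such siRNAs out of three were retested with fresh siRNAs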
Meaning of the calls: active = raised luciferase; inactive = no rise
In all, the deposit lists about 59,000 reagents; below is a random part of them. About 1,510 of all reagents (2.6%) count as active. 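Calls use total luciferase alone and ignore viability, so some active siRNAs may act by altering cell number.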 Reagents against one gene are numbered here. Not all columns of the deposit are shown.

target | reagent no. | total luciferase, z-score | total luciferase, % of control | Call
BCAS4 (breast carcinoma amplified sequence 4) | 1 | -0.784 | 66.3 | inactive
BCAS4 (breast carcinoma amplified sequence 4) | 2 | 0.0833 | 83.5 | inactive
BCAS4 (breast carcinoma amplified sequence 4) | 3 | -0.94 | 63.2 | inactive
EFHC2 (EF-hand domain containing 2) | 1 | -1.24 | 57.3 | inactive
EFHC2 (EF-hand domain containing 2) | 2 | -0.637 | 69.2 | inactive
EFHC2 (EF-hand domain containing 2) | 3 | 0.217 | 86.2 | inactive
IGSF10 (immunoglobulin superfamily member 10) | 1 | -1.21 | 57.8 | inactive
IGSF10 (immunoglobulin superfamily member 10) | 2 | 0.19 | 85.7 | inactive
IGSF10 (immunoglobulin superfamily member 10) | 3 | -0.69 | 68.2 | inactive
MFSD8 (major facilitator superfamily domain containing 8) | 1 | -0.313 | 75.7 | inactive
MFSD8 (major facilitator superfamily domain containing 8) | 2 | -0.373 | 74.5 | inactive
MFSD8 (major facilitator superfamily domain containing 8) | 3 | 1.19 | 106 | inactive
LTA (lymphotoxin alpha) | 1 | -0.258 | 76.7 | inactive
LTA (lymphotoxin alpha) | 2 | 0.361 | 89.1 | inactive
LTA (lymphotoxin alpha) | 3 | -0.3 | 75.9 | inactive
IGSF8 (immunoglobulin superfamily member 8) | 1 | 0.993 | 102 | inactive
IGSF8 (immunoglobulin superfamily member 8) | 2 | 0.841 | 98.6 | inactive
IGSF8 (immunoglobulin superfamily member 8) | 3 | -0.628 | 69.4 | inactive
SCYL2 (SCY1 like pseudokinase 2) | 1 | -0.403 | 73.9 | inactive
SCYL2 (SCY1 like pseudokinase 2) | 2 | 0.916 | 100 | inactive
SCYL2 (SCY1 like pseudokinase 2) | 3 | -0.172 | 78.5 | inactive
CSF2 (colony stimulating factor 2) | 1 | -2.58 | 30.6 | inactive
CSF2 (colony stimulating factor 2) | 2 | 0.266 | 87.2 | inactive
CSF2 (colony stimulating factor 2) | 3 | 0.589 | 93.6 | inactive
PIWIL3 (piwi like RNA-mediated gene silencing 3) | 1 | -0.844 | 65.1 | inactive
PIWIL3 (piwi like RNA-mediated gene silencing 3) | 2 | -0.488 | 72.2 | inactive
PIWIL3 (piwi like RNA-mediated gene silencing 3) | 3 | -0.721 | 67.6 | inactive
VPS11 (VPS11 core subunit of CORVET and HOPS complexes) | 1 | 0.195 | 85.8 | inactive
VPS11 (VPS11 core subunit of CORVET and HOPS complexes) | 2 | -0.62 | 69.6 | inactive
VPS11 (VPS11 core subunit of CORVET and HOPS complexes) | 3 | -1.37 | 54.7 | inactive
IL18 (interleukin 18) | 1 | 4.01 | 162 | active
IL18 (interleukin 18) | 2 | -1.84 | 45.2 | inactive
IL18 (interleukin 18) | 3 | 2.14 | 124 | inactive

A few values from above:
For “total luciferase, z-score”, PIWIL3 (piwi like RNA-mediated gene silencing 3) #3 has -0.721
Entry for PIWIL3 (piwi like RNA-mediated gene silencing 3) #2 under “Call”: inactive
Under “total luciferase, z-score”, EFHC2 (EF-hand domain containing 2) #1 reads -1.24
Under “Call”, VPS11 (VPS11 core subunit of CORVET and HOPS complexes) #2 reads inactive
Result for CSF2 (colony stimulating factor 2) #3 under “total luciferase, z-score”: 0.589
For “Call”, MFSD8 (major facilitator superfamily domain containing 8) #1 shows inactive

The list goes on:
target | reagent no. | total luciferase, z-score | total luciferase, % of control | Call
PRPF39 (pre-mRNA processing factor 39) | 1 | 2.37 | 129 | inactive
PRPF39 (pre-mRNA processing factor 39) | 2 | 1.15 | 105 | inactive
PRPF39 (pre-mRNA processing factor 39) | 3 | 0.184 | 85.6 | inactive
ACOT2 (acyl-CoA thioesterase 2) | 1 | 0.238 | 86.6 | inactive
ACOT2 (acyl-CoA thioesterase 2) | 2 | -0.00406 | 81.8 | inactive
ACOT2 (acyl-CoA thioesterase 2) | 3 | 1.68 | 115 | inactive
ZNF224 (zinc finger protein 224) | 1 | 0.916 | 100 | inactive
ZNF224 (zinc finger protein 224) | 2 | 0.354 | 88.9 | inactive
ZNF224 (zinc finger protein 224) | 3 | -0.0126 | 81.6 | inactive
RPL31 (ribosomal protein L31) | 1 | -2.83 | 25.6 | inactive
RPL31 (ribosomal protein L31) | 2 | -2.55 | 31.2 | inactive
RPL31 (ribosomal protein L31) | 3 | -2.55 | 31.2 | inactive
RHOB (ras homolog family member B) | 1 | -2.03 | 41.4 | inactive
RHOB (ras homolog family member B) | 2 | 0.55 | 92.8 | inactive
RHOB (ras homolog family member B) | 3 | -0.132 | 79.3 | inactive
RNF20 (ring finger protein 20) | 1 | -1.27 | 56.6 | inactive
RNF20 (ring finger protein 20) | 2 | -2.36 | 35 | inactive
RNF20 (ring finger protein 20) | 3 | -1.4 | 54.1 | inactive
LMBR1L (limb development membrane protein 1 like) | 1 | 1.31 | 108 | inactive
LMBR1L (limb development membrane protein 1 like) | 2 | 0.159 | 85 | inactive
LMBR1L (limb development membrane protein 1 like) | 3 | -0.408 | 73.8 | inactive
PEX39 (peroxisomal biogenesis factor 39) | 1 | -0.279 | 76.3 | inactive
PEX39 (peroxisomal biogenesis factor 39) | 2 | 1.56 | 113 | inactive
PEX39 (peroxisomal biogenesis factor 39) | 3 | 0.515 | 92.1 | inactive
